Laboratory results from article doi:10.1101/2023.12.05.570080.

Legend:
Experiment in all cases: pull-down LC-MS/MS
Settings in all cases: protein in an extract
[1] = target: T1, SUVH5 (Arabidopsis thaliana (cell culture)) (UniProt O82175)
T1 sequence (looked up, limits assumed): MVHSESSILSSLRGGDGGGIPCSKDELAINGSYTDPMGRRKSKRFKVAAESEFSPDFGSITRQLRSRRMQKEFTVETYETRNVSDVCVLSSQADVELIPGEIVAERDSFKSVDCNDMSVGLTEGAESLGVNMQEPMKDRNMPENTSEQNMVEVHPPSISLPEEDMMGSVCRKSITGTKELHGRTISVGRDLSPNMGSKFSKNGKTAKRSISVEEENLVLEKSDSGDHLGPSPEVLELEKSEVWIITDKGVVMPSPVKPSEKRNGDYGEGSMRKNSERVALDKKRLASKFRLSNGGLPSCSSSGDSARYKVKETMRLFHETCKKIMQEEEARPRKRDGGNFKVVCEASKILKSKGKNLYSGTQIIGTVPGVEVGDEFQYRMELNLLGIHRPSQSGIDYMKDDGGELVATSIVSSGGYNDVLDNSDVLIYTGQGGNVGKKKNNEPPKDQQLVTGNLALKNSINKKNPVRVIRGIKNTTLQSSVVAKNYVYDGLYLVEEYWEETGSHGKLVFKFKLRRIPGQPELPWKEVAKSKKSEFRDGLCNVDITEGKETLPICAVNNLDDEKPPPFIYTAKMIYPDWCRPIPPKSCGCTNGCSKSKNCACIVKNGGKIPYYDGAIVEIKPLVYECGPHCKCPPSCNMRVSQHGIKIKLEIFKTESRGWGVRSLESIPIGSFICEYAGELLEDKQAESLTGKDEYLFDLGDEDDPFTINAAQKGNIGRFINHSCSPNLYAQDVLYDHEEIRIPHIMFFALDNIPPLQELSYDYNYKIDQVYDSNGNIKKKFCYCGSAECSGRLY

[2] = target: T2, SUVH2 (Arabidopsis thaliana (cell culture)) (UniProt O22781)
T2 sequence (looked up, limits assumed): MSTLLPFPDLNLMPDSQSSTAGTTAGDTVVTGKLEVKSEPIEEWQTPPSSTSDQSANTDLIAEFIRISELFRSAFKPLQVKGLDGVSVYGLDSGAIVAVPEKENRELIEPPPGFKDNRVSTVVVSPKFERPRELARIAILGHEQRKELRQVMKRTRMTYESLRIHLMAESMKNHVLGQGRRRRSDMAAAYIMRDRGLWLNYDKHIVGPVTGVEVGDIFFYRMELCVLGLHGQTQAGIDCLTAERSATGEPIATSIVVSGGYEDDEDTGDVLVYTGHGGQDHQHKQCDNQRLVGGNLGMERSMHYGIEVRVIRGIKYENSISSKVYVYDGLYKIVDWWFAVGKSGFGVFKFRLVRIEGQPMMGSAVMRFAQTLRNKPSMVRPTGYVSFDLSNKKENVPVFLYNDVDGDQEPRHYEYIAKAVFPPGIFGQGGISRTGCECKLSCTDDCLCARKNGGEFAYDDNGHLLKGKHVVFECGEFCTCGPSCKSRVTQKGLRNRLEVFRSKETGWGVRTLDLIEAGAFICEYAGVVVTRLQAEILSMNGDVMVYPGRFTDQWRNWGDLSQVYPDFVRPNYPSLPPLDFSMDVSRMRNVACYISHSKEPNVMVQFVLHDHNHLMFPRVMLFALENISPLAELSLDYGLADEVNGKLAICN

[3] = target: T3, VIM1 (Arabidopsis thaliana (cell culture)) (UniProt Q8VYZ0)
T3 sequence (looked up, limits assumed): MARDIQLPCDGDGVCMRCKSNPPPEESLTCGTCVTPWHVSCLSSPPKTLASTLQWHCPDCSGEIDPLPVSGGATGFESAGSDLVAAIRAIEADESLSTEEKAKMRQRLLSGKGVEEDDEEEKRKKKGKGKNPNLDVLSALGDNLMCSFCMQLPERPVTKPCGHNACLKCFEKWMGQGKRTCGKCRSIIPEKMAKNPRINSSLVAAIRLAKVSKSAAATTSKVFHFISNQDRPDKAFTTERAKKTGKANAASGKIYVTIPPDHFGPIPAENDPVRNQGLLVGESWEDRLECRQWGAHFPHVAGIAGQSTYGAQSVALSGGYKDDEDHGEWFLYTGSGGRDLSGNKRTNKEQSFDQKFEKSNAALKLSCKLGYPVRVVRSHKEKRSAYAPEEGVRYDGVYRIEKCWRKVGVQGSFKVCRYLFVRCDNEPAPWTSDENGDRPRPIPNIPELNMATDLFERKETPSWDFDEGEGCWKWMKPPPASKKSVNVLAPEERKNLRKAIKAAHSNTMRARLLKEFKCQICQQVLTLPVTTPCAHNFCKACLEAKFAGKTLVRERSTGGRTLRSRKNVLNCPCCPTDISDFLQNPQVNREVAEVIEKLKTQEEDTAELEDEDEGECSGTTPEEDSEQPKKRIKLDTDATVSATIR

[4] = target: T4, VIM2 (Arabidopsis thaliana (cell culture)) (UniProt Q680I0)
T4 sequence (looked up, limits assumed): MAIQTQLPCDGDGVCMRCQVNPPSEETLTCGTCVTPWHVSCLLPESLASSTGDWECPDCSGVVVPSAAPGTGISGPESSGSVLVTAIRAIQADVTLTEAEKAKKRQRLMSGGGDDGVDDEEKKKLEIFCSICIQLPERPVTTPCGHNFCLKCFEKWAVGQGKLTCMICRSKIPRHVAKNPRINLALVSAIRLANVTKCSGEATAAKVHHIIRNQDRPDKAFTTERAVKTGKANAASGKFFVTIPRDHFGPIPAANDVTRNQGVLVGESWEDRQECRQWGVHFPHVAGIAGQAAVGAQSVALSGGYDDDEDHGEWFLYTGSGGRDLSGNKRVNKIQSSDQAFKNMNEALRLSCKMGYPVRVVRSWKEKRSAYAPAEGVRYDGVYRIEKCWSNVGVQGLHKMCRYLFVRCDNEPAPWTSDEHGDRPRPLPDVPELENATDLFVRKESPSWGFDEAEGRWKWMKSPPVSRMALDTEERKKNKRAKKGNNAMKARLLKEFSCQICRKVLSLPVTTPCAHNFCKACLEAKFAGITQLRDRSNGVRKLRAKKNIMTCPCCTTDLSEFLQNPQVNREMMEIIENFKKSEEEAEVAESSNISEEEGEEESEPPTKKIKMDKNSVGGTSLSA

[5] = target: T5, MBD5 (Arabidopsis thaliana (cell culture)) (UniProt Q9SNC0)
T5 sequence (looked up, limits assumed): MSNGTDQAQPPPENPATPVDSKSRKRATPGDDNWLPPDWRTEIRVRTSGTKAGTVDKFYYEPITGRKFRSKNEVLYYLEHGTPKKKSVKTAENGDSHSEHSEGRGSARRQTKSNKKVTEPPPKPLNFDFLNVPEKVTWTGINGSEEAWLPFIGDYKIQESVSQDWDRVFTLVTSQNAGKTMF

[6] = target: T6, VIM3 (Arabidopsis thaliana (cell culture)) (UniProt Q9FKA7)
T6 sequence (looked up, limits assumed): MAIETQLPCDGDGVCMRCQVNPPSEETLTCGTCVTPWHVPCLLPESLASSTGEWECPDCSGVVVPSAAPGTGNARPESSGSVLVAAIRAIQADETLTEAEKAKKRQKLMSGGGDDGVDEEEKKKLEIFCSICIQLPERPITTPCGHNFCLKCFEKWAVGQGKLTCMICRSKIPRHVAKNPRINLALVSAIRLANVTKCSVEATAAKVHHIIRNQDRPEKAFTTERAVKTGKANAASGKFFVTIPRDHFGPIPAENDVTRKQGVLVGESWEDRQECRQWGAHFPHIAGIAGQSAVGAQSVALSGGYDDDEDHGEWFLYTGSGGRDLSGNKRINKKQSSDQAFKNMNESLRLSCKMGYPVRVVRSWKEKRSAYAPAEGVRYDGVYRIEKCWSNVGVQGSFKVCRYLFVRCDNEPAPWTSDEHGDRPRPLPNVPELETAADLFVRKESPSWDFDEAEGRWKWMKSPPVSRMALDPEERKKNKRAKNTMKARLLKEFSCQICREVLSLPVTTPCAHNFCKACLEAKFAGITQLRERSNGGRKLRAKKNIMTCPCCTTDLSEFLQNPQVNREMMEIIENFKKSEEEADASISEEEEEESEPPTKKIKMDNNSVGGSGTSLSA

[7] = target: T7, MBD6 (Arabidopsis thaliana (cell culture)) (UniProt Q9LTJ1)
T7 sequence (looked up, limits assumed): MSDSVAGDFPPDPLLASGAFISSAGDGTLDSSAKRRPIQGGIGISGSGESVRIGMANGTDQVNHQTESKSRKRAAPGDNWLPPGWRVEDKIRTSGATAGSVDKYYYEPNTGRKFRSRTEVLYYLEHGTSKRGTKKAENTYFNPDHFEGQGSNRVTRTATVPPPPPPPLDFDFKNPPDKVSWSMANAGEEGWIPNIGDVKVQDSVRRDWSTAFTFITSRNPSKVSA

[8] = target: T8, SUVH4 (KYP) (Arabidopsis thaliana (cell culture)) (UniProt Q8GZB6)
T8 sequence (looked up, limits assumed): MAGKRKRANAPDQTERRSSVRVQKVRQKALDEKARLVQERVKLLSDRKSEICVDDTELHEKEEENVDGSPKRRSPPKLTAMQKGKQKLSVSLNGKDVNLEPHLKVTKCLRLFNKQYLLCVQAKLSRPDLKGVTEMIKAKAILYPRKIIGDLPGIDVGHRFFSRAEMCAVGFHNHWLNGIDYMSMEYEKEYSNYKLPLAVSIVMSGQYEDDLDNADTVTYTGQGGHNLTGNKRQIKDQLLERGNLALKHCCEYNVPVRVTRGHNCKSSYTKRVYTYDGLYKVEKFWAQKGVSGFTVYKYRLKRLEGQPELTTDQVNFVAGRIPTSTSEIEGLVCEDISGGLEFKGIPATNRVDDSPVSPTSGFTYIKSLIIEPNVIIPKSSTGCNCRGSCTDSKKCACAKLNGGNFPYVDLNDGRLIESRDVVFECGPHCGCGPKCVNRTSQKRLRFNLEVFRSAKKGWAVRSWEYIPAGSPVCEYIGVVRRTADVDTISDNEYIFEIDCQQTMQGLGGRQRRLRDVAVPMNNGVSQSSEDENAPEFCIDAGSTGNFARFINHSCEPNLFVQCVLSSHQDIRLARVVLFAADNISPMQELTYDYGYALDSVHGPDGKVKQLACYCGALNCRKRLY

[9] = target: T9, SUVH6 (Arabidopsis thaliana (cell culture)) (UniProt Q8VZ17)
T9 sequence (looked up, limits assumed): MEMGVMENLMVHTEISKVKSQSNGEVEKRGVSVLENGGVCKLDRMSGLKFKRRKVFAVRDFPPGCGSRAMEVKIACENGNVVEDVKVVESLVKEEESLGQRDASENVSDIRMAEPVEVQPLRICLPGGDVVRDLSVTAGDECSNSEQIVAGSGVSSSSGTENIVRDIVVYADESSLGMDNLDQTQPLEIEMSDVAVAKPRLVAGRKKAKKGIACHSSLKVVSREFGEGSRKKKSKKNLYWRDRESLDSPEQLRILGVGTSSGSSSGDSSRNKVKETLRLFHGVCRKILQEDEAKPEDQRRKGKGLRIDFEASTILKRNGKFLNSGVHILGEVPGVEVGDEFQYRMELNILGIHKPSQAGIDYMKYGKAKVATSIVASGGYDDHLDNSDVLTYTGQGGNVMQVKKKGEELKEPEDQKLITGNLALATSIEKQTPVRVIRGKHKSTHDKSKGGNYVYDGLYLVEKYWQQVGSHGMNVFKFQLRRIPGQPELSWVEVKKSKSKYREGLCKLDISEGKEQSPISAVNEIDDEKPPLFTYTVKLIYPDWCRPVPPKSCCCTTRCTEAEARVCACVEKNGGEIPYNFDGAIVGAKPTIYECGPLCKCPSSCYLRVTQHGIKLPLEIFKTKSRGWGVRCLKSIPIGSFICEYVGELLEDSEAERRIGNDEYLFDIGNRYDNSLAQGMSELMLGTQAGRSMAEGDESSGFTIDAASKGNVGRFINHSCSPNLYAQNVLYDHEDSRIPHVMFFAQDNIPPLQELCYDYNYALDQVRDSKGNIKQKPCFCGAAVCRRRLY

[10] = mC at 9,14,19,24 of strand 1 and 8,13,18,23 of strand 2

GATGATGTCAATTCAATTCAATTCAATATGATG (double strand) [methylated CHH probe (CHH1/CHH2)]
binding result ([1]; mC at 9,14,19,24 of strand 1): binds | binding result ([2]; mC at 9,14,19,24 of strand 1): binds

GATGATGTCAATTCAATTCAATTCAATATGATG (double strand) [unmethylated CHH probe (CHH3/CHH2)]
binding result [1]: binds more weakly | binding result [2]: binds more weakly

GATGATGTCGATTCGATTCGATTCGATATGATG (double strand) [unmethylated CG probe (CG3/CG4)]
binding result [3]: binds more weakly | binding result [1]: binds more weakly | binding result [4]: binds more weakly | binding result [2]: binds more weakly | binding result [5]: binds more weakly | binding result [6]: binds more weakly | binding result [7]: binds more weakly

GATGATGTCTGATCTGATCTGATCTGAATGATG (double strand) [methylated CHG probe (CHG1/CHG2)]
binding result [8, 10]: binds | binding result [3, 10]: binds | binding result [1, 10]: binds | binding result [4, 10]: binds | binding result [9, 10]: binds | binding result [2, 10]: binds | binding result [6, 10]: binds

GATGATGTCTGATCTGATCTGATCTGAATGATG (double strand) [unmethylated CHG probe (CHG3/CHG4)]
binding result [8]: binds more weakly | binding result [3]: binds more weakly | binding result [1]: binds more weakly | binding result [4]: binds more weakly | binding result [9]: binds more weakly | binding result [2]: binds more weakly | binding result [6]: binds more weakly

The exact form of at least one protein or probe is not confirmed. Results from cells or extracts need not show a direct contact. Weaker means in comparison with the reference protein, sequence or condition of that experiment. At least one verdict rests on a figure or table, not on a statement of the authors. Where a protein sequence is shown, tags need not be part of it.
